# Experimental data: the supplement of paper PMC8728848
# The list shows a part of the results.
# B1: Intelectin 1 (Homo sapiens), Q8WWA0 (protein)
# chain: MNQLSFLLFLIATTRGWSTDEANTYFKEWTCSSSPSLPRSCKEIKDECPSAFDGLYFLRTENGVIYQTFCDMTSGGGGWTLVASVHENDMRGKCTVGDRWSSQQGSKAVYPEGDGNWANYNTFGSAEAATSDDYKNPGYYDIQAKDLGIWHVPNKSPMQHWRNSSLLRYRTDTGFLQTLGHNLFGIYQKYPVKYGEGKCWTDNGPVIPVVYDFGDAQKTASYYSPYGQREFTAGFVQFRVFNNERAANALCAGMRVTGCNTEHHCIGGGGYFPEASPQQCGDFSGFDWSGYGTHVGYSSSREITEAAVLLFYR
# Experiments:
# Assay in all cases: glycan array binding signal (z-score within array); higher = stronger binding
# Conditions in all cases: glycan notation: IUPAC condensed, linker removed
# [1] = biological target: Fuc(a1-2)Gal(b1-4)[Fuc(a1-3)]GlcNAc
# Outline: (§1)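 The binding signal is a Z-score computed within each array. Data were drawn from 3228 arrays in the Consortium for Functional Glycomics database, restricted to those with a known protein sequence. Scores were averaged over arrays of the same protein sequence at different concentrations or buffers, and over linkers, and negative values can be taken as non-binding.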
# [2] = biological target: Fuc(a1-2)Gal(b1-4)[Fuc(a1-3)]GlcNAc(b1-2)Man(a1-3)[Fuc(a1-2)Gal(b1-4)[Fuc(a1-3)]GlcNAc(b1-2)Man(a1-6)]Man(b1-4)GlcNAc(b1-4)GlcNAc
# Outline: as §1
# [3] = biological target: Fuc(a1-2)Gal(b1-4)[Fuc(a1-3)]GlcNAc(b1-2)[Fuc(a1-2)Gal(b1-4)[Fuc(a1-3)]GlcNAc(b1-4)]Man(a1-3)[Fuc(a1-2)Gal(b1-4)[Fuc(a1-3)]GlcNAc(b1-2)Man(a1-6)]Man(b1-4)GlcNAc(b1-4)GlcNAc
# Outline: as §1
# [4] = biological target: Fuc(a1-2)Gal(b1-4)[Fuc(a1-3)]GlcNAc(b1-3)Gal(b1-4)[Fuc(a1-3)]GlcNAc
# Outline: as §1
# [5] = biological target: Fuc(a1-2)Gal(b1-4)[Fuc(a1-3)]GlcNAc(b1-3)Gal(b1-4)[Fuc(a1-3)]GlcNAc(b1-3)Gal(b1-4)[Fuc(a1-3)]GlcNAc
# Outline: as §1
# [6] = biological target: Fuc(a1-2)Gal(b1-4)[Fuc(a1-3)]GlcNAc(b1-3)GalNAc
# Outline: as §1
# Fuc(a1-2)Gal6S(b1-4)Glc = biological target: Fuc(a1-2)Gal6S(b1-4)Glc
# Outline: as §1
# [7] = biological target: Fuc(a1-2)Gal6S(b1-4)Glc6S
# Outline: as §1
# [8] = biological target: Fuc(a1-2)Gal6S(b1-4)GlcNAc
# Outline: as §1
# Fuc(a1-2)[Gal(a1-3)]Gal = biological target: Fuc(a1-2)[Gal(a1-3)]Gal
# Outline: as §1
# [9] = biological target: Fuc(a1-2)[Gal(a1-3)]Gal(b1-3)GalNAc
# Outline: as §1
# [10] = biological target: Fuc(a1-2)[Gal(a1-3)]Gal(b1-3)GlcNAc
# Outline: as §1
# [11] = biological target: Fuc(a1-2)[Gal(a1-3)]Gal(b1-3)GlcNAc(b1-2)Man(a1-3)[Fuc(a1-2)[Gal(a1-3)]Gal(b1-3)GlcNAc(b1-2)Man(a1-6)]Man(b1-4)GlcNAc(b1-4)GlcNAc
# Outline: as §1
# [12] = biological target: Fuc(a1-2)[Gal(a1-3)]Gal(b1-3)GlcNAc(b1-2)Man(a1-3)[Fuc(a1-2)[Gal(a1-3)]Gal(b1-3)GlcNAc(b1-2)Man(a1-6)]Man(b1-4)GlcNAc(b1-4)[Fuc(a1-6)]GlcNAc
# Outline: as §1
# [13] = biological target: Fuc(a1-2)[Gal(a1-3)]Gal(b1-3)GlcNAc(b1-3)GalNAc
# Outline: as §1
# [14] = biological target: Fuc(a1-2)[Gal(a1-3)]Gal(b1-4)Glc
# Outline: as §1
# [15] = biological target: Fuc(a1-2)[Gal(a1-3)]Gal(b1-4)GlcNAc
# Outline: as §1
# [16] = biological target: Fuc(a1-2)[Gal(a1-3)]Gal(b1-4)GlcNAc(b1-2)Man(a1-3)[Fuc(a1-2)[Gal(a1-3)]Gal(b1-4)GlcNAc(b1-2)Man(a1-6)]Man(b1-4)GlcNAc(b1-4)GlcNAc
# Outline: as §1
# [17] = biological target: Fuc(a1-2)[Gal(a1-3)]Gal(b1-4)GlcNAc(b1-2)Man(a1-3)[Fuc(a1-2)[Gal(a1-3)]Gal(b1-4)GlcNAc(b1-2)Man(a1-6)]Man(b1-4)GlcNAc(b1-4)[Fuc(a1-6)]GlcNAc
# Outline: as §1
# [18] = biological target: Fuc(a1-2)[Gal(a1-3)]Gal(b1-4)GlcNAc(b1-3)GalNAc
# Outline: as §1
# [19] = biological target: Fuc(a1-2)[Gal(a1-3)]Gal(b1-4)[Fuc(a1-3)]Glc
# Outline: as §1
# [20] = biological target: Fuc(a1-2)[Gal(a1-3)]Gal(b1-4)[Fuc(a1-3)]GlcNAc
# Outline: as §1
# [21] = biological target: Fuc(a1-2)[Gal(a1-3)]Gal(b1-4)[Fuc(a1-3)]GlcNAc(b1-3)GalNAc
# Outline: as §1
# [22] = biological target: Fuc(a1-2)[Gal(a1-4)]Gal(b1-4)GlcNAc
# Outline: as §1
# [23] = biological target: Fuc(a1-2)[GalNAc(a1-3)]Gal
# Outline: as §1
# [24] = biological target: Fuc(a1-2)[GalNAc(a1-3)]Gal(b1-3)GalNAc(a1-3)[Fuc(a1-2)]Gal(b1-4)GlcNAc
# Outline: as §1
# [25] = biological target: Fuc(a1-2)[GalNAc(a1-3)]Gal(b1-3)GlcNAc
# Outline: as §1
# [26] = biological target: Fuc(a1-2)[GalNAc(a1-3)]Gal(b1-3)GlcNAc(b1-2)Man(a1-3)[Fuc(a1-2)[GalNAc(a1-3)]Gal(b1-3)GlcNAc(b1-2)Man(a1-6)]Man(b1-4)GlcNAc(b1-4)GlcNAc
# Outline: as §1
# [27] = biological target: Fuc(a1-2)[GalNAc(a1-3)]Gal(b1-3)GlcNAc(b1-2)Man(a1-3)[Fuc(a1-2)[GalNAc(a1-3)]Gal(b1-3)GlcNAc(b1-2)Man(a1-6)]Man(b1-4)GlcNAc(b1-4)[Fuc(a1-6)]GlcNAc
# Outline: as §1
# [28] = biological target: Fuc(a1-2)[GalNAc(a1-3)]Gal(b1-3)GlcNAc(b1-3)GalNAc
# Outline: as §1
# [29] = biological target: Fuc(a1-2)[GalNAc(a1-3)]Gal(b1-4)Glc
# Outline: as §1
# [30] = biological target: Fuc(a1-2)[GalNAc(a1-3)]Gal(b1-4)GlcNAc
# Outline: as §1
# [31] = biological target: Fuc(a1-2)[GalNAc(a1-3)]Gal(b1-4)GlcNAc(b1-2)Man(a1-3)[Fuc(a1-2)[GalNAc(a1-3)]Gal(b1-4)GlcNAc(b1-2)Man(a1-6)]Man(b1-4)GlcNAc(b1-4)GlcNAc
# Outline: as §1
# [32] = biological target: Fuc(a1-2)[GalNAc(a1-3)]Gal(b1-4)GlcNAc(b1-2)Man(a1-3)[Fuc(a1-2)[GalNAc(a1-3)]Gal(b1-4)GlcNAc(b1-2)Man(a1-6)]Man(b1-4)GlcNAc(b1-4)[Fuc(a1-6)]GlcNAc
# Outline: as §1
# [33] = biological target: Fuc(a1-2)[GalNAc(a1-3)]Gal(b1-4)GlcNAc(b1-3)Gal(b1-4)GlcNAc
# Outline: as §1
# [34] = biological target: Fuc(a1-2)[GalNAc(a1-3)]Gal(b1-4)GlcNAc(b1-3)Gal(b1-4)GlcNAc(b1-3)Gal(b1-4)GlcNAc
# Outline: as §1
# [35] = biological target: Fuc(a1-2)[GalNAc(a1-3)]Gal(b1-4)GlcNAc(b1-3)GalNAc
# Outline: as §1
binder,measurement,setting,value
B1,glycan array binding signal (z-score),[1],0.924
same,glycan array binding signal (z-score),[2],1.24
same,glycan array binding signal (z-score),[3],0.518
same,glycan array binding signal (z-score),[4],0.04
same,glycan array binding signal (z-score),[5],0.276
same,glycan array binding signal (z-score),[6],1.22
same,glycan array binding signal (z-score),Fuc(a1-2)Gal6S(b1-4)Glc,-0.108
same,glycan array binding signal (z-score),[7],0.034
same,glycan array binding signal (z-score),[8],-0.383
same,glycan array binding signal (z-score),Fuc(a1-2)[Gal(a1-3)]Gal,0.16
same,glycan array binding signal (z-score),[9],0.337
same,glycan array binding signal (z-score),[10],-0.243
same,glycan array binding signal (z-score),[11],0.577
same,glycan array binding signal (z-score),[12],0.285
same,glycan array binding signal (z-score),[13],-0.336
same,glycan array binding signal (z-score),[14],-0.412
same,glycan array binding signal (z-score),[15],-0.298
same,glycan array binding signal (z-score),[16],-0.198
same,glycan array binding signal (z-score),[17],0.011
same,glycan array binding signal (z-score),[18],-0.063
same,glycan array binding signal (z-score),[19],0.569
same,glycan array binding signal (z-score),[20],0.511
same,glycan array binding signal (z-score),[21],-0.244
same,glycan array binding signal (z-score),[22],-0.211
same,glycan array binding signal (z-score),[23],-0.164
same,glycan array binding signal (z-score),[24],-0.339
same,glycan array binding signal (z-score),[25],-0.613
same,glycan array binding signal (z-score),[26],-0.821
same,glycan array binding signal (z-score),[27],1.21
same,glycan array binding signal (z-score),[28],0.94
same,glycan array binding signal (z-score),[29],0.011
same,glycan array binding signal (z-score),[30],-0.851
same,glycan array binding signal (z-score),[31],-0.344
same,glycan array binding signal (z-score),[32],-0.51
same,glycan array binding signal (z-score),[33],-0.387
same,glycan array binding signal (z-score),[34],-0.766
same,glycan array binding signal (z-score),[35],0.21
